Measured values published in PubChem BioAssay AID504834 (National Center for Advancing Translational Sciences (NCATS), 2011).
The campaign covered roughly 320,000 compounds. About 22,000 (6.9%) were called active. The shares of active, inactive and inconclusive entries below differ from those in the screen. The call rests on the fitted dose curve; in most records, active means well fitted inhibition curve with a large enough effect; inconclusive means small, poorly fitted or top-dose-only effect, or another doubt; inactive means no such curve, though single readings can be large or run the other way. Potencies of inconclusive entries are doubtful fits and often do not repeat.

assay: Primary qHTS for delayed death inhibitors of the malarial parasite plastid, 96 hour incubation; conditions: P. falciparum luciferase reporter growth; series mostly up to 28.7 µM; activity change, negative = inhibition: at the top concentration
In short: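 Parasite growth measured via integrated firefly luciferase reporter in P. falciparum. Infected erythrocytes at 2% hematocrit, 0.05% parasitemia final were treated 96 hours at 37 C under 5% CO2, and luminescence was read.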
On the % scale 0 is the no-effect control and ±100 the full control effect; potency means the concentration at half of the fitted maximal effect.

SMILES | Potency | activity change, negative = inhibition
Clc1ccc(C2CSc3c4ncnc-4ncn32)cc1 (configuration not stated) | inconclusive: 0.465 µM [inhibitor, full curve] | 
COc1nc(-c2cccs2)cc(-c2ccc(C)cc2)c1C#N | inconclusive: 0.0738 µM [inhibitor, full curve, poor fit] | 
CSCCCNC(=S)N1CCN(c2ccc(C(C)=O)cc2)CC1 | active: 11.7 µM | 
O=C(N1CCOCC1)N1CCN(c2ccc(F)cc2)CC1 |  | inactive: 56.4%
C#CCNC(=O)C1=C[C@H](c2ccc(C(F)(F)F)cc2)C[C@H](OCc2ccc(CO)cc2)O1 | inconclusive: 10.4 µM [inhibitor, partial curve] | 
O=C(NCCc1ccccc1)C(=O)NN=C1CCCC1 |  | inactive: -0.2%
C/C(=N/NC(=O)c1ccncc1)c1c[nH]c2ccccc12 | inconclusive: 2.33 µM [inhibitor, full curve, poor fit] | 
COc1ccc(N2CCN(C(c3cc4cc(C)ccc4[nH]c3=O)c3nnnn3Cc3ccccc3)CC2)cc1 (configuration not stated) | active: 3.7 µM | 
CCOC(=O)C=C(C(=O)OCC)C(=O)OCC |  | inactive: 11.5%
CC1CCN(S(=O)(=O)c2ccc(NC(=S)NC(=O)c3ccc(Cl)cc3)cc2)CC1 | inconclusive: 9.28 µM [inhibitor, partial curve, poor fit] | 
CCOc1ccc(CCNC(=O)CCc2nnc3ccc(N4CCCC4)nn23)cc1OCC | inconclusive: 13.1 µM [inhibitor, single point] | 
CCOC(=O)C1CCN(C(=O)COC(=O)c2nc3nc(C)cc(C)n3n2)CC1 |  | inactive: 24.1%
Cc1ccc(C)c(OC(=O)C2CSC3(C)CCC(=O)N23)c1C (configuration not stated) | inconclusive: 18.5 µM [inhibitor, single point] | 
COc1cccc(NC(=O)CCCCCN2C(=O)[C@@H]3Cc4ccccc4CN3C2=O)c1 | active: 11.7 µM | 
COC(=O)C1=C(C)NC(C)=C(C(=O)OC)C1c1ccc(OC(=O)c2oc3ccccc3c2C)c(OC)c1 | inconclusive: 14.7 µM [inhibitor, partial curve] | 
COC(=O)[C@@H](Cc1ccccc1)NC(=O)NCCc1c[nH]c2ccccc12 | inconclusive: 11.7 µM [inhibitor, partial curve, poor fit] | 
CN(CC(=O)NC1CC1)S(=O)(=O)c1cc(Cl)ccc1Cl | active: 5.22 µM | 
Cc1cc(C)c(OCCN2CCOCC2)c(Cl)c1 |  | inactive: -65.2%
COc1ccccc1S(=O)(=O)Cc1ccc(C(=O)N2CCN(c3ccc(C)cc3)C(C)C2)o1 (configuration not stated) | inconclusive: 2.33 µM [inhibitor, single point] | 
Cc1ccc2nc(NC(=S)NC(=O)c3ccc(OC(C)C)cc3)sc2c1 | inconclusive: 4.15 µM [inhibitor, single point] | 
Cc1cc(C)cc(NC(=O)CCCN2C(=O)C(c3ccccc3)Oc3cccnc32)c1 (configuration not stated) | active: 3.7 µM | 
COc1ccccc1CN1CC(C(=O)NC2CCOCC2)CCC1=O (configuration not stated) |  | inactive: -20.1%
O=C(N/N=C/c1cccc(O)c1)c1ccc(NC(=O)C2CCCCC2)cc1 | inconclusive: 0.415 µM [inhibitor, partial curve, poor fit] | 
COC(=O)[C@H]1C[C@@H]1[C@H](NC(=O)OCc1ccccc1)c1ccccc1 | inconclusive: 18.5 µM [inhibitor, single point] | 

SMILES | Potency | activity change, negative = inhibition
CC(NC(=O)c1ccccc1)c1nnc(SCC(=O)Nc2nnc(C3CC3)s2)n1C (configuration not stated) | inconclusive: 4.15 µM [inhibitor, single point] | 
Cc1cc(C(=O)N2CC=C(c3ccccc3)CC2)c2ccccc2n1 |  | inactive: -0.924%
CCCc1cc(=O)oc2cc(C)cc(OC(C)C(=O)NCC3CCC(C(=O)O)CC3)c12 (configuration not stated) | inconclusive: 18.5 µM [inhibitor, single point] | 
O=C(Nc1ccc(Br)cc1)N1CCCC(O)C1 (configuration not stated) |  | inactive: 26.5%
Cc1c(C)c2c(OCC(=O)NCC(O)c3ccccc3)cc3c(c2oc1=O)CCC(C)(C)O3 (configuration not stated) | active: 4.65 µM | 
Cc1cccc(-c2n[nH]c(=S)n2/N=C/C=C/c2ccco2)c1 |  | inactive: 28.4%
COc1cccc(CNC(=O)CN(C)S(=O)(=O)c2ccc3c(c2)CC(C)N3C(C)=O)c1 (configuration not stated) | inconclusive: 10.4 µM [inhibitor, single point] | 
Cc1cc(/C=C2\C(=N)N3N=C(S(C)(=O)=O)SC3=NC2=O)c(C)n1Cc1ccccc1 |  | inactive: -13.2%
O=C(Nc1ccccc1N1CCCCC1)c1cccc([N+](=O)[O-])c1 | inconclusive: 13.1 µM [inhibitor, single point] | 
Cc1ccc2cccc(OCC(=O)c3cc(C)n(Cc4ccco4)c3C)c2n1 | inconclusive: 4.15 µM [inhibitor, full curve, poor fit] | 
CC(C)Oc1ccc(C(CC(=O)NCCCN(C)C)c2ccc(F)cc2)cc1 (configuration not stated) | active: 11.7 µM | 
CN(C)c1ccc(/C=N/NC(=O)CNC(=O)c2ccco2)cc1 |  | inactive: 9.82%
Cc1ccc(NC(=O)Nc2ccccc2)cc1[N+](=O)[O-] | inconclusive: 18.5 µM [inhibitor, single point] | 
Cc1ccc(C(=O)CSc2ccccc2C(=O)O)cc1 |  | inactive: 188%
COc1ccc(NCC(O)Cn2c(C)c(C)c3ccccc32)cc1 (configuration not stated) | active: 7.38 µM | 
COc1ccc(/C=C(\NC(=O)c2ccc(Cl)cc2)C(=O)NCCCN2CCOCC2)cc1OC | inconclusive: 18.5 µM [inhibitor, single point] | 
O=C(NC1CCCCC1)NC1C2CC3CC(C2)CC1C3 (configuration not stated) | inconclusive: 18.5 µM [inhibitor, single point] | 
CC1=Nc2ccc(C)cc2/C1=C/c1c(N)n2nc(CC(=O)N3CCOCC3)sc2nc1=O | inconclusive: 16.5 µM [inhibitor, single point] | 
CC1CCCCC1NC(=O)CSc1ccc([N+](=O)[O-])cc1 (configuration not stated) |  | inactive: -5.83%
O=C(CSc1nnnn1-c1ccc(C(=O)O)cc1)NC1CC1 | inconclusive: 18.5 µM [inhibitor, single point] | 
COc1ccc(NC(=O)c2ccc(C)cc2)c(OC)c1 |  | inactive: 173%
O=C(NC1CCCCC1)c1cc2c(cc1Cl)N1CCCCCC1=NS2(=O)=O | inconclusive: 9.28 µM [inhibitor, single point] | 
CC(NC(=O)c1ccco1)C(=O)Nc1nc(-c2ccccn2)cs1 (configuration not stated) | inconclusive: 10.4 µM [inhibitor, single point] | 

3 compounds out of the list, ordered by number of heavy atoms, ascending.
SMILES | Potency | activity change, negative = inhibition
COC(=O)[C@@H](Cc1ccccc1)NC(=O)NCCc1c[nH]c2ccccc12 | inconclusive: 11.7 µM [inhibitor, partial curve, poor fit] | 
CCOC(=O)C1CCN(C(=O)COC(=O)c2nc3nc(C)cc(C)n3n2)CC1 |  | inactive: 24.1%
COc1cccc(NC(=O)CCCCCN2C(=O)[C@@H]3Cc4ccccc4CN3C2=O)c1 | active: 11.7 µM | 
